{"source": "patent US8173771B2", "about": "“Humanin receptor or humanin-like polypeptide receptor” (Keio Univeristy, priority 2005, dated 2012)", "target": "T1, human WSX-1, human CNTF receptor and human gp130 overexpressed in F11 cells (Homo sapiens, UniProt P26992+Q6UWB1)", "T1 construct": "His; V5 (C); expressed in transfected cells; host or cells: F11 cells", "T1 sequence (Q6UWB1 33-636)": "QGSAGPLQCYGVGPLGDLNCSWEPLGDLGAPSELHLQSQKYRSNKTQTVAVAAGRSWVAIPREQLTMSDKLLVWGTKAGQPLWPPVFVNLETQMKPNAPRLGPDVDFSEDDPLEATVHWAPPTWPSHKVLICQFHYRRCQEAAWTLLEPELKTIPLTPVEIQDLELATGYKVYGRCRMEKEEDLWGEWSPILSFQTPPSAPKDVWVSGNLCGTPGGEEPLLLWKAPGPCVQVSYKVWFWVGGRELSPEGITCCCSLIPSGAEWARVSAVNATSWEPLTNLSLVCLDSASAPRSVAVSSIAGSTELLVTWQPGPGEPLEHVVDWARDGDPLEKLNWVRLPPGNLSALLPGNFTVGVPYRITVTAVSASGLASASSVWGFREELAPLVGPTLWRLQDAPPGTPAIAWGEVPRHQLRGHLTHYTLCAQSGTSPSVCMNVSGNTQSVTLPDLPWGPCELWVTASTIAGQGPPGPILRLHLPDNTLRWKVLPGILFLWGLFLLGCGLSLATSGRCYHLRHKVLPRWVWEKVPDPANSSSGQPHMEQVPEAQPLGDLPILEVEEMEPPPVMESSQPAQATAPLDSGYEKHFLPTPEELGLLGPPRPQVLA", "T1 sequence (P26992 23-342)": "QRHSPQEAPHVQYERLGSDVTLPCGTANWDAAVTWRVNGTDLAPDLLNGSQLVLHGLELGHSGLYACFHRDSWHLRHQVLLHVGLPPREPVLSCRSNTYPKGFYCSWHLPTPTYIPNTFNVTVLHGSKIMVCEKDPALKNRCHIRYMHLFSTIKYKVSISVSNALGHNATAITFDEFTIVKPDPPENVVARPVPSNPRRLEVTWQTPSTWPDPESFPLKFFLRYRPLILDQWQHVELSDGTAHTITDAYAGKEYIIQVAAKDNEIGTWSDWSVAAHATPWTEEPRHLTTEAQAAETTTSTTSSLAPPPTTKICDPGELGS", "T1 sequence (P40189 23-918 partner)": "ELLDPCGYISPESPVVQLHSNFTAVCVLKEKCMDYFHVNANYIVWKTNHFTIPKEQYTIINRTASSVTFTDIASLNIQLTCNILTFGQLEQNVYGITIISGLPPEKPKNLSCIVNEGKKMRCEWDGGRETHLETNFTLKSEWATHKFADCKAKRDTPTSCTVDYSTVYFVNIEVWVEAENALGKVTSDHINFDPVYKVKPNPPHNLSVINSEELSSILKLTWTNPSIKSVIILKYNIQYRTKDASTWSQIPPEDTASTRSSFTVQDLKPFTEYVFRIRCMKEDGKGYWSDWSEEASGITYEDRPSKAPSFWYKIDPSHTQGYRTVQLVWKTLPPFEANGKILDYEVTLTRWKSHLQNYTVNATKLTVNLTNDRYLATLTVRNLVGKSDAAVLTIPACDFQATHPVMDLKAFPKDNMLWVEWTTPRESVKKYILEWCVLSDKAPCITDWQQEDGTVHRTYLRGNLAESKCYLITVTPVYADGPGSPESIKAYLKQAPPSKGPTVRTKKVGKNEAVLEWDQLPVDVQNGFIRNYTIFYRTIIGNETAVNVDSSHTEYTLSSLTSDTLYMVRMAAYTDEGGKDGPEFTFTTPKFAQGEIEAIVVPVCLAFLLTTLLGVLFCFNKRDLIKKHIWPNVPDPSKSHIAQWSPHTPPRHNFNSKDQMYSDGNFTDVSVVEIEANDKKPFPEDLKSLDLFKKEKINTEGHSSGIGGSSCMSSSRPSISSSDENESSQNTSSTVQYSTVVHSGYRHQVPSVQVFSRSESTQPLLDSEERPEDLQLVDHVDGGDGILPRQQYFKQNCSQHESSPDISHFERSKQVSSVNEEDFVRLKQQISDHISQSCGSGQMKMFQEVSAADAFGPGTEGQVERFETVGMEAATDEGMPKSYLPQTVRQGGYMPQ", "experiment": "Immunofluorescence-based HN binding assay (1) after ectopic overexpression of receptor genes in F11 cells", "settings": "overexpression of both the CNTF receptor and WSX-1", "description": "A) F11 cells were transfected with 0.5 μg of the pEF/BOS vector, pEF-mycHis CREME9, pEF-mycHishuman WSX-1, or pEF-V5-human CNTF-R in association with 0.5 μg of pCAG-human gp130, or transfected with 0.5 μg of pEF-mycHis human WSX-1 and pEF-V5-human CNTF-R and pCAG-human gp130. To keep the total amounts of transfected vectors to be 1.5 μg, an appropriate amount of the pEFBOS vector was added. The graphs show the results of a binding amount of the biotin-labeled HN to each transfected cell by the detection of immunofluorescence reaction. The protein expression by immunoblot analysis is shown below in photos.\nB) F11 cells were transfected with 0.5 μg of pEF-myc His human CREME9 or pEF-mycHis human WSX-1 in association with 0.5 μg of pCAG-human gp130. For competition, 10 μM of non-labeled (cold) HNG or HNA was added for some experiments. Fluorescence signals were detected with a laser-scanning, confocal microscope LSM (Carl Zeiss, Germany) (right panels).\nF11 cells (7×10^4/well in 6-well plates) were replated into 96-well plates (7×10^3 cells/well) at 24 hrs after transfection with indicated amounts of the plasmids encoding mycHis-WSX or V5-CNTF-R, and with PCAG-human gp130 if required. At 36 hrs after transfection, the cells were added with 100 nM of biotin-labeled HNG-FLAG in the presence or the absence of 10 μM of HNG (S14 G-HN) or HNA (C8A-HN) (Hashimoto et al., 2001a). After 6 hrs incubation, they were fixed with 4% paraformaldehyde in PBS for 30 min. After washing with PBS, cells were stained with FITC-conjugated avidin (Molecularprobe, Eugene, Oreg., USA). Immunofluorescence intensity was measured (excitation=485 nm, emission=535 nm) with a spectrofluorometer (Wallac1420 ARVOsx Multi Label Counter). Immunohistochemical analysis was done with a laser-scanning, confocal microscope LSM (Carl Zeiss, Germany).", "note": "At least one peptide structure holds a part that was inferred or is arguable (an end, a ring closure or a residue)."}
{"smiles": "CC[C@H](C)[C@H](NC(=O)[C@H](CCC(=O)O)NC(=O)[C@H](CO)NC(=O)[C@@H](NC(=O)[C@H](CC(C)C)NC(=O)[C@H](CC(C)C)NC(=O)[C@H](CC(C)C)NC(=O)[C@H](CC(C)C)NC(=O)[C@H](CS)NC(=O)[C@H](CO)NC(=O)[C@H](Cc1ccccc1)NC(=O)CNC(=O)[C@H](CCCNC(=N)N)NC(=O)[C@@H]1CCCN1C(=O)[C@H](C)NC(=O)[C@@H](N)CCSC)[C@@H](C)O)C(=O)N[C@@H](CC(=O)O)C(=O)N[C@@H](CC(C)C)C(=O)N1CCC[C@H]1C(=O)N[C@H](C(=O)N[C@@H](CCCCN)C(=O)N[C@@H](CCCNC(=N)N)C(=O)N[C@@H](CCCNC(=N)N)C(=O)N[C@@H](C)C(=O)O)C(C)C", "note": "[HN, Humanin]", "values": [{"measurement": "binding of HN to F11 cells", "result": "synergistic increase"}]}
